The compounds below were run against T1, HK853 (Thermotoga maritima, UniProt Q9WZV7). Conditions: in words.
T1 sequence (Q9WZV7 232-489): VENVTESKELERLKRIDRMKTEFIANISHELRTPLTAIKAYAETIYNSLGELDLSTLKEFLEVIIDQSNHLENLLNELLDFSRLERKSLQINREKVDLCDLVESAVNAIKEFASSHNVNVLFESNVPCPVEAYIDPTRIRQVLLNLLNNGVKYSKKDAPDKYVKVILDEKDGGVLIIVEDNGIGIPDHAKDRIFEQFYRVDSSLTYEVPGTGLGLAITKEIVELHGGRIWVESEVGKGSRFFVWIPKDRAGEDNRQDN
In the case of `Nc1nc2ccc(C(F)(F)F)cc2s1` [Rilu-6], the “inhibition of HKs” value is reported as “found to inhibit HKs”. In the case of `Cc1nc2ccc(N)cc2s1` [Rilu-7], the “inhibition of HKs” value is reported as “found to inhibit HKs”. For `COc1ccc2nc(N)sc2c1` [Rilu-8], the “inhibition of HKs” value was “found to inhibit HKs”. With `Nc1ccc2nc(N)sc2c1` [Rilu-9] the “inhibition of HKs” value was “found to inhibit HKs”.
